Measured values from US20020076728A1, “Engineering affinity ligands for macromolecules” (priority 1997, published 2002).
Results are given in words; binding and its absence hold for the method and conditions named. Some results given as binding are weak or reduced against the parent protein; the word gives no strength.

Sequences of proteins named here, by UniProt entry; tags and fusion partners are left off. Residues count along the entry.
UniProt P00750, residues 36-562: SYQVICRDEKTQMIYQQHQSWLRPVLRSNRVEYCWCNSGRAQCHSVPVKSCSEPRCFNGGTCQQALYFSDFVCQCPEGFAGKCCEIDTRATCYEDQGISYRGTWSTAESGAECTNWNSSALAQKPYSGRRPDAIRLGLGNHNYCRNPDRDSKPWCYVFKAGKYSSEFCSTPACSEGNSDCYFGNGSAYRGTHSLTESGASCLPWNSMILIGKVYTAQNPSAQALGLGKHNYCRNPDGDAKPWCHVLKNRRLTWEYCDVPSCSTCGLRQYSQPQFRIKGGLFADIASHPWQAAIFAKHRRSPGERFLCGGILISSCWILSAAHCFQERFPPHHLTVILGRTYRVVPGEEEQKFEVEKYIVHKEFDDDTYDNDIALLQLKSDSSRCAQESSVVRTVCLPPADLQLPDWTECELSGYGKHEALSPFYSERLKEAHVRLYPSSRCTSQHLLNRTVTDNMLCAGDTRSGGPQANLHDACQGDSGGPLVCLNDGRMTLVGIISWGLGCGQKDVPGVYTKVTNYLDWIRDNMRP

molecular target: recombinant human tissue-type plasminogen activator (human) (UniProt P00750); assay: phage selection on tPA-agarose beads, bound at pH 7, eluted at pH 2 after a pH 5 elution

Binder	binding
RWCPKYTLECMKDSDCLAECVCLEHGYCG (designed binder) [CMTI-I analogue 225 (phage isolate)]	binds
RWCPRSSLECMKDSDCLAECVCLEHGYCG (designed binder) [CMTI-I analogue 224 (phage isolate)]	binds
RWCPRSNLECMKDSDCLAECVCLEHGYCG (designed binder) [CMTI-I analogue 226 (phage isolate)]	binds
RWCPRSNLECMKDSDCLAECVCLEHGYCG (designed binder) [CMTI-I analogue 237 (phage isolate)]	binds
RWCPKYTLECMKDSDCLAECVCLEHGYCG (designed binder) [CMTI-I analogue 223 (phage isolate)]	binds
RWCPKSTLGCMKDSDCLAECVCLEHGYCG (designed binder) [CMTI-I analogue 235 (phage isolate)]	binds
RWCPKYTLECMKDSDCLAECVCLEHGYCG (designed binder) [CMTI-I analogue 230 (phage isolate)]	binds
RWCPRSNLECMKDSDCLAECVCLEHGYCG (designed binder) [CMTI-I analogue 227 (phage isolate)]	binds
RWCPKSTLGCMKDSDCLAECVCLEHGYCG (designed binder) [CMTI-I analogue 222 (phage isolate)]	binds
RWCPKTSLGCMKDSDCLAECVCLEHGYCG (designed binder) [CMTI-I analogue 232 (phage isolate)]	binds
RWCPRSSLECMKDSDCLAECVCLEHGYCG (designed binder) [CMTI-I analogue 236 (phage isolate)]	binds
RWCPKYTLECMKDSDCLAECVCLEHGYCG (designed binder) [CMTI-I analogue 233 (phage isolate)]	binds
RWCPKSTLGCMKDSDCLAECVCLEHGYCG (designed binder) [CMTI-I analogue 221 (phage isolate)]	binds
RWCPRSTLECMKDSDCLAECVCLEHGYCG (designed binder) [CMTI-I analogue 231 (phage isolate)]	binds
RWCPKYTLECMKDSDCLAECVCLEHGYCG (designed binder) [CMTI-I analogue 228 (phage isolate)]	binds
RWCPRSNLECMKDSDCLAECVCLEHGYCG (designed binder) [CMTI-I analogue 238 (phage isolate)]	binds
RWCPRSSLECMKDSDCLAECVCLEHGYCG (designed binder) [CMTI-I analogue 234 (phage isolate)]	binds
RWCPKYTLECMKDSDCLAECVCLEHGYCG (designed binder) [CMTI-I analogue 229 (phage isolate)]	binds

molecular target: recombinant human tissue-type plasminogen activator (human) (UniProt P00750); assay: clonal phage on tPA-agarose beads, release at pH 5 then pH 2

Binder	binding
RWCSTYSLGCMKDSDCLAECVCLEHGYCG (designed binder) [CMTI-I analogue 103 (phage isolate)]	binds
RWCSTYSLGCMKDSDCLAECVCLEHGYCG (designed binder) [CMTI-I analogue 104 (phage isolate)]	binds
RLCPKTSLECMKDSDCLAECVCLEHGYCG (designed binder) [CMTI-I analogue 107 (phage isolate)]	binds
RWCPTAPLECMKDSDCLAECVCLEHGYCG (designed binder) [CMTI-I analogue 112 (phage isolate)]	binds
RWCPKTSLECMKDSDCLAECVCLEHGYCG (designed binder) [CMTI-I analogue 120 (phage isolate)]	binds
RLCPKTSLECMKDSDCLAECVCLEHGYCG (designed binder) [CMTI-I analogue 105 (phage isolate)]	binds
RWCPKSSMGCKKDSDCLAECVCLEHGYCG (designed binder) [CMTI-I analogue 110 (phage isolate)]	binds
RLCPKTDLGCMKDSDCLAECVCLEHGYCG (designed binder) [CMTI-I analogue 109 (phage isolate)]	binds
RWCPKTSLGCMKDSDCLAECVCLEHGYCG (designed binder) [CMTI-I analogue 101 (phage isolate)]	binds
RWCPKTHKECMKDSDCLAECVCLEHGYCG (designed binder) [CMTI-I analogue 119 (phage isolate)]	binds
RWCPKSALDCKKDSDCLAECVCLEHGYCG (designed binder) [CMTI-I analogue 114 (phage isolate)]	binds
RWCPKTSLGCMKDSDCLAECVCLEHGYCG (designed binder) [CMTI-I analogue 232 (phage isolate)]	binds
RLCPKTDLGCMKDSDCLAECVCLEHGYCG (designed binder) [CMTI-I analogue 113 (phage isolate)]	binds
RWCPRTVQECMKDSDCLAECVCLEHGYCG (designed binder) [CMTI-I analogue 111 (phage isolate)]	binds
RLCPKTYLGCMKDSDCLAECVCLEHGYCG (designed binder) [CMTI-I analogue 102 (phage isolate)]	binds
RWCTKTSRECMKDSDCLAECVCLEHGYCG (designed binder) [CMTI-I analogue 115 (phage isolate)]	binds
RWCIRTDLGCMKDSDCLAECVCLEHGYCG (designed binder) [CMTI-I analogue 116 (phage isolate)]	binds
RWCSKSSLECMKDSDCLAECVCLEHGYCG (designed binder) [CMTI-I analogue 108 (phage isolate)]	binds
RWCSTYSLGCMKDSDCLAECVCLEHGYCG (designed binder) [CMTI-I analogue 106 (phage isolate)]	binds
RWCPKTSLGCMKDSDCLAECVCLEHGYCG (designed binder) [CMTI-I analogue 117 (phage isolate)]	binds
RWCPRTVRRCMKDSDCLAECVCLEHGYCG (designed binder) [CMTI-I analogue 118 (phage isolate)]	binds
